Experimental data: PubChem BioAssay AID504786 (Drosophila RNAi Screening Center, 2011)

- Assay: 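Fly genes required for HIF-dependent transcription when hypoxia is mimicked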 (primary screen)
- System: Drosophila S2 cells with a stable HIF luciferase reporter
- Reagents: long dsRNA against Drosophila genes, about 0.2 µg dsRNA per well of a 384-well plate
- Timing: three days of knock-down, then 20 h of DFO before reading
- Treatment: desferrioxamine (DFO) at 100 µM, an iron chelator that mimics hypoxia, for 20 h
- Measurement: 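HIF reporter luminescence in cells given 100 µM DFO for 20 h, using the mouse ldh-a hypoxia-response element, scored as per-plate z-scores; higher means greater loss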
- Reading the numbers: z-score: higher = stronger loss of HIF reporter signal
In all, the deposit lists about 21,000 reagents; this is an unselected part of those with a known target gene and a result. 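Primary screen; positive scores mean lost reporter signal, so the sign may be inverted from the usual convention.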 Names joined by + are all predicted targets of the reagent. Further read-outs or replicates are left out here. Reagent sequences are not shown.

For CG34324 [DRSC19502], what was measured?
z-score, replicate 1: -0.2

What is on record for Cog4 (Component of oligomeric golgi complex 4) [DRSC03057]?
z-score, replicate 1: -0.4

What did the screen give for CG6310 [DRSC10619]?
z-score, replicate 1: -0.2

With Mul1 (Mitochondrial E3 ubiquitin protein ligase 1) [DRSC08174], what was measured?
z-score, replicate 1: -0.3

For Ktch (Ketchup) [DRSC15094], how do the results read?
z-score, replicate 1: -0.4

What is on record for Spn43Aa (Serpin 43Aa) [DRSC06117]?
z-score, replicate 1: -0.3

With PPP4R2r (Protein phosphatase 4 regulatory subunit 2-related protein) [DRSC18695], what was measured?
z-score, replicate 1: -0.3

With CG9760 [DRSC11101], what does the deposit list?
z-score, replicate 1: -0.2

With su(f) (suppressor of forked) [DRSC20907], what was measured?
z-score, replicate 1: 0.8

With Sin3A [DRSC07552], what was measured?
z-score, replicate 1: 0.2

With Echs1 (Enoyl-CoA hydratase, short chain 1) [DRSC06999], what was measured?
z-score, replicate 1: -0.4

What did the screen give for CG15930 [DRSC18107]?
z-score, replicate 1: -0.3

For CG15701 [DRSC06572], what was measured?
z-score, replicate 1: -0.3

What is on record for PGAP3 (Post-GPI attachment to proteins 3) [DRSC04989]?
z-score, replicate 1: -0.2

How did the screen score SIFaR (SIFamide receptor) [DRSC13467]?
z-score, replicate 1: -0.5

For SIFaR (SIFamide receptor) [DRSC14266], how do the results read?
z-score, replicate 1: 0.5

How did the screen score RpL39 (Ribosomal protein L39) [DRSC04651]?
z-score, replicate 1: 6

With CG31797 [DRSC02476], what was measured?
z-score, replicate 1: -0.2

With CG31797 [DRSC02477], how do the results read?
z-score, replicate 1: -0.3

With Xpac (Xeroderma pigmentosum group A-like) [DRSC18730], what was measured?
z-score, replicate 1: -0.2

How did the screen score CG6108 (retired record) [DRSC02929]?
z-score, replicate 1: -0.4

For CG10405 [DRSC14238], how do the results read?
z-score, replicate 1: -0.1

What is on record for Spn42Da (Serpin 42Da) [DRSC05025]?
z-score, replicate 1: -0.3

With kek2 (kekkon 2) [DRSC03552], how do the results read?
z-score, replicate 1: -0.2

For CG12795 [DRSC00354], how do the results read?
z-score, replicate 1: -0.2

How did the screen score CG42245 + MEP-1 [DRSC07993]?
z-score, replicate 1: -0.3

For CG42245 + MEP-1 [DRSC08274], how do the results read?
z-score, replicate 1: -0.1

2 of these entries, set out differently:
gene knocked down | dsRNA | z-score, replicate 1
Ktch (Ketchup) | DRSC15094 | -0.4
Spn43Aa (Serpin 43Aa) | DRSC06117 | -0.3
